Measurements as given in patent publication US8778939B2, “Compounds” (Glaxo Group Limited, priority 2009, dated 2014).
Some results were stated once for a whole list of compounds, not compound by compound.

The compounds below were run against T1, 6His-Tev-LRRK2 (1326-2527) (Homo sapiens, UniProt Q5S007) (assay: LRRK2 peptide substrate assay). Settings: Biotin-LRRKtide peptide substrate, ATP at Km.
T1 construct: A LRRK2 cDNA encoding residues 1326-2527 was received from Dundee University; made in house; host or cells: Spodoptera frugiperda (Sf9) insect cells, baculovirus
T1 sequence (Q5S007 1326-2527): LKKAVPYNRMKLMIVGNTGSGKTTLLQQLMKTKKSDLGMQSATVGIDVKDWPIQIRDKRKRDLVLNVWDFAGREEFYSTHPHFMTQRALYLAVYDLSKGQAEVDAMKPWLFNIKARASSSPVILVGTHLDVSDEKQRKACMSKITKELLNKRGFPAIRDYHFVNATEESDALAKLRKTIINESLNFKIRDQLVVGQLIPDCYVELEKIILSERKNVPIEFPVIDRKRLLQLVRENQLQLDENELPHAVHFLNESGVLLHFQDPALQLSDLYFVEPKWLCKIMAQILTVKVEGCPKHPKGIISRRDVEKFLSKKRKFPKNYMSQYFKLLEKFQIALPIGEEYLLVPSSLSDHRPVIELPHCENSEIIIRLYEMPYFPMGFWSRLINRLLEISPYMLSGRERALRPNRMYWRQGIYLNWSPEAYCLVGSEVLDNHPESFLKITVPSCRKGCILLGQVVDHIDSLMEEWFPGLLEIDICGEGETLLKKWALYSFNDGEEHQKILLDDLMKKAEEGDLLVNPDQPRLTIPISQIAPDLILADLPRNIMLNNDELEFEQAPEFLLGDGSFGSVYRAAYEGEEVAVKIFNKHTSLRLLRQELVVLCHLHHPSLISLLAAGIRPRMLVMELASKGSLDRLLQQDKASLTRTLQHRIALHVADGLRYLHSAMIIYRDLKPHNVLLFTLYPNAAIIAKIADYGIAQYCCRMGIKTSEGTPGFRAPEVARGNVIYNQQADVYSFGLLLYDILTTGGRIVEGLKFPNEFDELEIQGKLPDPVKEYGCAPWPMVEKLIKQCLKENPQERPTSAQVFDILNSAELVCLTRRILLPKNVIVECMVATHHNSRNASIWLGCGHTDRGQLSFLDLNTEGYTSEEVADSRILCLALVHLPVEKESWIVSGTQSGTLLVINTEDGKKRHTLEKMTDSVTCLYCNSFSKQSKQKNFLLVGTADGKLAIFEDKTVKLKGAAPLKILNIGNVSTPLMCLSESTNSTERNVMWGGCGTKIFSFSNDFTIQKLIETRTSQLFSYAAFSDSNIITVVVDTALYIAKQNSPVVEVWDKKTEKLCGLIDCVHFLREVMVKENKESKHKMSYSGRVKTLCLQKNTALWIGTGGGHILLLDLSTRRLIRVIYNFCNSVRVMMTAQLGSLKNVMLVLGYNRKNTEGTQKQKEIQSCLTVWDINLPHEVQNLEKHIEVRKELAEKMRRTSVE
Type: biochemical
Procedure: Compounds of formula (I) may be tested for in vitro kinase activity in accordance with the following assays, using the non natural, in vitro, substrates moesin and the Longer Biotin-LRRKtide. Moesin and a shorter version of the peptide were identified as substrates in Jaleel et al, (2007, Biochem J, 405: 307-317).
LRRK2 Peptide Substrate Assay
a) 100 nl of a 1:4 serial dilution of test compound with a top final assay concentration of 30 μM is added to certain wells in a low volume 384 well black plate. 100 nl of DMSO is used in certain wells as controls.
b) 3 μl enzyme solution (80 nM purified recombinant 6His-Tev-LRRK2 (1326-2527) in assay buffer: 50 mM Hepes (pH 7.2), 10 mM MgCl2, 150 mM NaCl, 5% glycerol, 0.0025% triton X-100 and 1 mM DTT) is added to certain wells. […] Plates are then incubated for a further 1-2 hours at room temperature (incubation time varies depending upon rate and linearity of reaction with differing enzyme batches). d) 6 μl detection solution (50 nM Streptavidin SureLight® APC (PerkinElmer), 4 nM Eu-W1024 labelled anti-rabbit IgG antibody (PerkinElmer), 1:500 dilution (dilution determined on a batch to batch basis) of Phospho-Ezrin (Thr567)/Radixin (Thr564)/Moesin (Thr558) Polyclonal Antibody (New England Biolabs) and 60 mM EDTA in buffer: 40 mM Hepes (pH 7.2), 150 mM NaCl, 0.03% BSA) is added to each well. Plates are then incubated for a further 2 hours at room temperature before reading on a suitable plate reader (Excitation 330 nm, emission 620 nm (Eu) and 665 nm (APC)). Data is analysed using ActivityBase software (IDBS). LRRK2 AlphaScreen Protein Substrate Assay

Compound	pIC50 in the LRRK2 peptide substrate assay
O=C(Nc1cccnc1)c1cc(N2CCCCC2)ccc1OCc1ccccc1 [Example 33, 2-[(Phenylmethyl)oxy]-5-(1-piperidinyl)-N-3-pyridinylbenzamide]	≥ 5.6
O=C(Nc1cccnc1F)c1cc(C(=O)N2CCOCC2)ccc1OCc1ccc(F)cc1F [Example 125, 2-{[(2,4-Difluorophenyl)methyl]oxy)-N-(2-fluoro-3-pyridinyl)-5-(4-morpholinylcarbonyl)benzamide]	≥ 5.6
C[C@@H]1CN(c2ccc(OCc3ccccc3)c(C(=O)Nc3cccnc3)c2)C[C@H](C)N1C [Example 103, 2-[(Phenylmethyl)oxy]-N-3-pyridinyl-5-[(3R,5S)-3,4,5-trimethyl-1-piperazinyl]benzamide]	≥ 5.6
O=C(Nc1ccnnc1)c1cc(-c2ccncc2)ccc1OCc1ccc(F)c(F)c1 [Example 106, 2-([(3,4-Difluorophenyl)methyl]oxy)-N-4-pyridazinyl-5-(4-pyridinyl)benzamide]	≥ 5.6
O=C(Nc1cccnc1)c1cc(-c2ccncc2)ccc1OCc1ccc(F)c(F)c1 [Example 109, 2-{[(3,4-Difluorophenyl)methyl]oxy}-N-3-pyridinyl-5-(4-pyridinyl)benzamide]	≥ 5.6
CNCCOc1ccc(OCc2ccccc2)c(C(=O)Nc2cccnc2)c1 [Example 48, 5-{[2-(Methylamino)ethyl]oxy}-2-[(phenylmethyl)oxy]-N-3-pyridinylbenzamide]	≥ 5.6
O=C(Nc1cccnc1)c1cc(-c2cnn(CCN3CCOCC3)c2)ccc1OCc1ccc(F)cc1 [Example 128, 2-{[(4-Fluorophenyl)methyl]oxy}-5-{1-[2-(4-morpholinyl)ethyl]-1H-pyrazol-4-yl}-N-3-pyridinylbenzamide]	≥ 5.6
O=C(Nc1cccnc1)c1cc(CN2CCCC2)ccc1OCc1ccccc1 [Example 70, 2-[(Phenylmethyl)oxy]-N-3-pyridinyl-5-(1-pyrrolidinylmethyl)benzamide]	≥ 5.6
Cn1nccc1-c1ccc(OCc2ccc(F)cc2)c(C(=O)Nc2cccnc2)c1 [Example 95, 2-{[(4-Fluorophenyl)methyl]oxy}-5-(1-methyl-1H-pyrazol-5-yl)-N-3-pyridinylbenzamide]	≥ 5.6
Nc1cc(-c2ccc(OCc3ccccc3)c(C(=O)Nc3cccnc3)c2)ccn1 [Example 122, 5-(2-Amino-4-pyridinyl)-2-[(phenylmethyl)oxy]-N-3-pyridinylbenzamide]	≥ 5.6
COc1ccccc1COc1ccc(Br)cc1C(=O)Nc1cccnc1 [Example 21, 5-Bromo-2-({[2-(methyloxy)phenyl]methyl}oxy)-N-3-pyridinylbenzamide]	≥ 5.6
Cn1cc(NC(=O)c2cc(Br)ccc2OCc2ccccc2)cn1 [Example 50, 5-Bromo-N-(1-methyl-1H-pyrazol-4-yl)-2-[(phenylmethyl)oxy]benzamide]	≥ 5.6
O=C(Nc1cccnc1)c1cc(C(=O)N2CCOCC2)ccc1OCc1ccc(F)cc1 [Example 127, 2-{[(4-Fluorophenyl)methyl]oxy}-5-(4-morpholinylcarbonyl)-N-3-pyridinylbenzamide]	≥ 5.6
CN1CCN(c2ccc(OCc3ccccc3)c(C(=O)Nc3cccnc3)c2)CC1 [Example 32, 5-(4-Methyl-1-piperazinyl)-2-[(phenylmethyl)oxy]-N-3-pyridinylbenzamide]	≥ 5.6
Cn1cc(-c2ccc(OCc3ccc(F)c(F)c3)c(C(=O)Nc3cccnc3)c2)cn1 [Example 110, 2-{[(3,4-Difluorophenyl)methyl]oxy)-5-(1-methyl-1H-pyrazol-4-yl)-N-3-pyridinylbenzamide]	≥ 5.6
O=C(Nc1cccnc1F)c1cc(C(=O)N2CCOCC2)ccc1OCc1ccc(F)cc1 [Example 123, 2-{[(4-Fluorophenyl)methyl]oxy}-N-(2-fluoro-3-pyridinyl)-5-(4-morpholinylcarbonyl)benzamide]	≥ 5.6
CCc1cccc(NC(=O)c2cc(Br)ccc2OCc2ccccc2)c1 [Example 20, 5-Bromo-N-(3-ethylphenyl)-2-[(phenylmethyl)oxy]benzamide]	≥ 5.6
Cn1cc(-c2ccc(OCc3ccc(F)cc3)c(C(=O)Nc3ccnnc3)c2)cn1 [Example 94, 2-{[(4-Fluorophenyl)methyl]oxy}-5-(1-methyl-1H-pyrazol-4-yl)-N-4-pyridazinylbenzamide]	≥ 5.6
Cc1nocc1NC(=O)c1cc(C(=O)N2CCOCC2)ccc1OCc1ccc(F)cc1 [Example 124, 2-{[(4-Fluorophenyl)methyl]oxy}-N-(3-methyl-4-isoxazolyl)-5-(4-morpholinylcarbonyl)benzamide]	≥ 5.6
O=C(Nc1ccnnc1)c1cc(-c2cnn(CCN3CCOCC3)c2)ccc1OCc1ccc(F)cc1 [Example 137, 2-{[(4-Fluorophenyl)methyl]oxy)-5-(1-[2-(4-morpholinyl)ethyl]-1H-pyrazol-4-yl}-N-4-pyridazinylbenzamide]	≥ 5.6
O=C(O)Cc1cccc(NC(=O)c2cc(Cl)ccc2OCc2ccccc2)c1 [Example 25, {3-[({5-Chloro-2-[(phenylmethyl)oxy]phenyl}carbonyl)amino]phenyl}acetic acid]	≥ 5.6
CC(C)(O)c1ccc(OCc2ccccc2)c(C(=O)Nc2cccnc2)c1 [Example 76, 5-(1-Hydroxy-1-methylethyl)-2-[(phenylmethyl)oxy]-N-3-pyridinylbenzamide]	≥ 5.6
Cn1cc(-c2ccc(OCc3ccccc3)c(C(=O)Nc3ccnnc3)c2)cn1 [Example 73, 5-(1-Methyl-1H-pyrazol-4-yl)-2-[(phenylmethyl)oxy]-N-4-pyridazinylbenzamide]	≥ 5.6
O=C(Nc1cncc(F)c1)c1cc(-c2ccncc2)ccc1OCc1ccccc1 [Example 102, N-(5-Fluoro-3-pyridinyl)-2-[(phenylmethyl)oxy]-5-(4-pyridinyl)benzamide]	≥ 5.6
CN(C)CCOc1ccc(OCc2ccccc2)c(C(=O)Nc2cccnc2)c1 [Example 30, 5-{[2-(Dimethylamino)ethyl]oxy}-2-[(phenylmethyl)oxy]-N-3-pyridinylbenzamide]	≥ 5.6
O=C(Nc1cccnc1)c1cc(Br)ccc1OCc1cccc(Cl)c1 [Example 13, 5-Bromo-2-{[(3-chlorophenyl)methyl]oxy}-N-3-pyridinylbenzamide]	≥ 5.6
O=C(Nc1cn[nH]c1)c1cc(Br)ccc1OCc1ccccc1 [Example 51, 5-Bromo-2-[(phenylmethyl)oxy]-N-1H-pyrazol-4-ylbenzamide]	≥ 5.6
O=C(Nc1ccccn1)c1cc(Br)ccc1OCc1ccccc1 [Example 22, 5-Bromo-2-[(phenylmethyl)oxy]-N-2-pyridinylbenzamide]	≥ 5.6
